# Test results published in PubChem BioAssay AID504467 (National Center for Advancing Translational Sciences (NCATS), 2011).
# The whole screen tested about 330,000 compounds, of which about 7,700 (2.3%) were called active. The shares of active, inactive and inconclusive entries below differ from those in the screen. Calls follow the shape of the dose curve; as a rule, active = well fitted inhibition curve with a large enough effect; inconclusive = small, poorly fitted or top-dose-only effect, or effect the other way; inactive = flat fitted curve, though single readings scatter. Where the call is inconclusive, the potency comes from a doubtful curve fit.
# Test: qHTS screen for small molecules that inhibit ELG1-dependent DNA repair in human embryonic kidney (HEK293T) cells expressing luciferase-tagged ELG1; also: nearly all actives have a fitted effect of over 55% in size
# Conditions: HEK293T ELG1-luciferase reporter, luminescence, 16 h, DNA damage induced by 5-fluorouridine; activity change, negative = inhibition: at 46.1 µM (top of the series)
# Method in brief: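 Quantitative HTS, concentration-response format. 2,000 cells/well co-treated with 5-fluorouridine and compound, 16 hr in 5% CO2 at 37 °C; ONE-Glo luminescence read after 30 min.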
# % is scaled to controls: 0 for no effect and ±100 for the full control effect; potency is read from the fitted curve at half-maximal effect.
Structure (SMILES),Potency,"activity change, negative = inhibition"
O=C(CN(CCO)c1ccccc1)Nc1cccc(S(=O)(=O)N2CCCC2)c1,"inconclusive: 29.1 µM [inhibitor, single point]",–
CC[C@@H]1CCCCc2ccccc2[C@H](C(=O)C[C@H](O)CC(C)=O)OC1=O,–,inactive: 7.59%
CC(C)C(NC(=O)c1ccc(F)cc1)C(=O)N1CCOCC1 (configuration not stated),–,inactive: 11.6%
Cc1ccc(S(=O)(=O)N2CCN(c3ncnc4sccc34)CC2)cc1,active: 9.2 µM,–
C=CCOn1c(-n2nc(C)cc2C)nc2ccccc2c1=O,–,inactive: -7.71%
Cc1ccccc1N1CCN(c2ncnc3scc(-c4cccs4)c23)CC1,–,inactive: -26.4%
COc1ccc([C@@H]2[C@@H]3C(=O)N(C(C)(C)C)C(=O)[C@@H]3[C@]3(Cc4ccccc4)C(=O)N(c4ccccc4)C(=O)N23)cc1,–,inactive: -0.773%
COc1ccc2ccccc2c1CN1CCN(C(=O)c2ccco2)CC1,active: 20.6 µM,–
O=C(Nc1ccnn1C1CCN(C(=O)c2cnsn2)CC1)c1cccc(F)c1,"inconclusive: 29.1 µM [activator, partial curve, poor fit]",–
CCCc1cc(=O)oc2c(C)c(O[C@@H]3O[C@H](CO)[C@@H](O)[C@H](O)[C@H]3O)ccc12,"inconclusive: 8.2 µM [inhibitor, partial curve]",–
CCc1nc(SCc2ccc(OC)cc2)n[nH]1,"inconclusive: 11.6 µM [activator, partial curve]",–
O=C(COC(=O)C1=COCCO1)Nc1cc(Cl)c(Cl)cc1Cl,"inconclusive: 16.4 µM [activator, partial curve, poor fit]",–
C=CCNc1nc(N)c(C(=C(C#N)C#N)c2ccccc2)s1,"inconclusive: 20.6 µM [inhibitor, single point]",–
CCOC(=S)SCC(=O)N1CCc2cc(OC)c(OC)cc2C1C1C(=O)CC(C)(C)CC1=O (configuration not stated),–,inactive: 1.91%
CC12CCC(C(=O)NCc3ccccc3)(OC1=O)C2(C)C (configuration not stated),–,inactive: 4.23%
NC(=O)COc1ccc(-c2noc(COc3ccccc3[N+](=O)[O-])n2)cc1,"inconclusive: 10.3 µM [activator, partial curve, poor fit]",–
Cc1cc(C)c(C#N)c(SCC(O)COc2ccc(Br)cc2)n1 (configuration not stated),"inconclusive: 18.3 µM [inhibitor, single point]",–
CC(C)C(C(=O)OCC(=O)c1cccc([N+](=O)[O-])c1)N1C(=O)[C@@H]2[C@H]3CC[C@H](C3)[C@@H]2C1=O (some centres not stated),–,inactive: -2.05%
NS(=O)(=O)c1ccc2nc(NC(=O)Nc3ccc(F)cc3)sc2c1,"inconclusive: 20.6 µM [activator, partial curve]",–
CCOC(=O)C1CCN(S(=O)(=O)c2ccc3c(c2)NC(=O)CS3)CC1,–,inactive: -17.1%
NC(=O)c1ccccc1-c1nc(-c2ccccc2)no1,"inconclusive: 13 µM [activator, partial curve]",–
O=C(Nc1nnc(CCc2ccccc2)s1)c1ccco1,"inconclusive: 20.6 µM [activator, partial curve, poor fit]",–
CCC1Oc2ccc(C)cc2N(CC(=O)N(Cc2ccc3c(c2)OCO3)CC2CCCO2)C1=O (configuration not stated),"inconclusive: 11.6 µM [inhibitor, single point]",–
C=CCn1cccc(/C=C/C(=O)c2ccc(C(C)(C)C)cc2)c1=S,"inconclusive: 29.1 µM [inhibitor, single point]",–

Structure (SMILES),Potency,"activity change, negative = inhibition"
CC(=O)c1ccc(NC(=S)N2CCC(Cc3ccccc3)CC2)cc1,–,inactive: 0%
C#CCSc1ncc(-c2ccccc2)cn1,"inconclusive: 14.6 µM [activator, partial curve]",–
Cc1nnc2c3ccccc3c(-c3cccc4ccccc34)nn12,"inconclusive: 20.6 µM [activator, single point]",–
O=C1CCSc2ccc(Cl)cc2N1Cc1cccc(Cl)c1,–,inactive: -12%
O=C(N/N=C/c1ccc(Br)s1)c1cccs1,"inconclusive: 18.3 µM [activator, single point]",–
COc1ccc(NS(=O)(=O)c2ccc(S(=O)(=O)N3CCOCC3)cc2)cc1,"inconclusive: 14.6 µM [inhibitor, partial curve]",–
Cc1nccnc1Sc1ccccc1,"inconclusive: 29.1 µM [activator, partial curve, poor fit]",–
CC(Oc1ccc(Br)cc1)C(=O)NC1CCCCCC1 (configuration not stated),"inconclusive: 14.6 µM [activator, partial curve]",–
CCCCOc1ccc(C(=O)N/C(=C/C=C/c2ccccc2)C(=O)O)cc1,–,inactive: 15.3%
Cc1csc(NC(=O)c2ccc[nH]c2=O)n1,"inconclusive: 11.6 µM [activator, partial curve]",–
S=C(NCCc1ccccn1)NC1CC2CCC1C2 (configuration not stated),"inconclusive: 2.91 µM [activator, single point]",–
COc1ccc(-c2cc(C(=O)NN)[nH]n2)cc1,"inconclusive: 18.4 µM [activator, single point]",–
CC(/C=C/c1ccccc1)=N\NC(=O)CSc1ccccn1,–,inactive: 7.65%
C/C(CC(=O)Nc1cccc2c1CCCC2)=N\NC(=O)c1ccccc1N,"inconclusive: 23.1 µM [activator, partial curve, poor fit]",–
O=C1C(C2=NC(C(=O)O)C3C(=O)N(c4ccccc4)C(=O)C23)=C(O)c2ccccc21 (configuration not stated),"inconclusive: 3.26 µM [inhibitor, single point]",–
Cc1cccc(NC(=O)c2nc[nH]c2C(=O)N2CCN(C(=O)OC(C)(C)C)CC2)c1,–,inactive: -28.5%
O=C(c1ccccc1)c1c[nH]c2ccccc12,"inconclusive: 29.1 µM [activator, single point]",–
N=c1n(CC(=O)c2ccc([N+](=O)[O-])cc2)c2ccccc2n1Cc1ccccc1Cl,–,inactive: 0.303%
CC(CC(=O)c1cccs1)CC(=O)c1cccs1,"inconclusive: 20.6 µM [activator, partial curve]",–
Cc1ccc(CN2CCN(Cc3cnc(N4CCOCC4)s3)CC2CCO)cc1 (configuration not stated),"inconclusive: 23.1 µM [inhibitor, single point]",–
O=C(NNC(=O)c1ccc(NC(=O)c2ccccc2)cc1)c1ccc(F)cc1,–,inactive: 3.83%
Cc1cc(C)n(C(=O)Cn2nc(C)c(Br)c2C)n1,–,inactive: -0.462%
CCOc1cc(-c2sc(Nc3ccccc3)n[n+]2C)ccc1OC,–,inactive: 25.8%
C=CCN(C(=O)c1cccc(C(F)(F)F)c1)C1(C(=O)Nc2ccccc2)CCN(C(C)C)CC1,–,inactive: -0.029%

# Entries of single compounds, quoted from the list:
# C=CCNc1nc(N)c(C(=C(C#N)C#N)c2ccccc2)s1 is listed as Potency: inconclusive: 20.6 µM [inhibitor, single point]
# O=C1C(C2=NC(C(=O)O)C3C(=O)N(c4ccccc4)C(=O)C23)=C(O)c2ccccc21 (configuration not stated) is listed as Potency: inconclusive: 3.26 µM [inhibitor, single point]
# CCc1nc(SCc2ccc(OC)cc2)n[nH]1 is listed as Potency: inconclusive: 11.6 µM [activator, partial curve]
# O=C(COC(=O)C1=COCCO1)Nc1cc(Cl)c(Cl)cc1Cl is listed as Potency: inconclusive: 16.4 µM [activator, partial curve, poor fit]

# The listing continues:

Structure (SMILES),Potency,"activity change, negative = inhibition"
O=C1NC(=Nc2ccccc2)S/C1=C\c1cccs1,"inconclusive: 16.4 µM [activator, partial curve]",–
COc1ccc(-n2c(=S)[nH]c3c(sc(=S)n3-c3ccccc3)c2=O)c(OC)c1,–,inactive: 0.389%
CCN(CC)CCNS(=O)(=O)c1ccc2c3c(cccc13)C(=O)N2,–,inactive: -15%
O=C(c1ccc2nc(N3CCCCC3)sc2c1)N1CCN(Cc2ccc3c(c2)OCO3)CC1,"inconclusive: 16.4 µM [inhibitor, single point]",–
COc1ccc(/C=C(\NC(=O)c2ccccc2)C(=O)NCCN2CCOCC2)cc1,–,inactive: 10.3%
O=C(C1CCC1)N1CCN(S(=O)(=O)c2cc(F)ccc2F)CC1,–,inactive: 13.8%
CCOC(=O)c1ccc(NC(=O)c2ccc(CN3CCOCC3)cc2)cc1,"inconclusive: 18.4 µM [inhibitor, partial curve]",–
O=C(C[C@H]1C[C@H](C(=O)N2CCCCC2)[C@@]2(CCc3ccccc3)c3[nH]c4ccc(Cl)cc4c3CCN2C1=O)NCc1cccc(C(F)(F)F)c1,"inconclusive: 23.1 µM [inhibitor, partial curve, poor fit]",–
Fc1ccc(Nc2nc(Oc3ccccc3F)nc(N3CCCC3)n2)cc1,"inconclusive: 29.1 µM [inhibitor, single point]",–
CCOc1ccc(/C=N/N2C(C)CCCC2C)cc1 (configuration not stated),"inconclusive: 20.6 µM [activator, partial curve]",–
CC(=Nc1ccccc1)C1=C(O)CSC1=O,"inconclusive: 18.4 µM [activator, single point]",–
CN(CC(=O)Nn1cnnc1)S(=O)(=O)c1ccc(Br)cc1,"inconclusive: 0.731 µM [activator, partial curve, poor fit]",–
CCOC(=O)[C@H]1[C@H]2COc3ccc(Cl)cc3[C@@H]2N2C(=O)[C@@H](C)NC(=O)[C@@]12C,–,inactive: 9.72%
COc1ccc(N(C(=O)CNC(=O)c2ccco2)C(C(=O)NC2CCCC2)c2cccnc2)cc1 (configuration not stated),"inconclusive: 20.6 µM [activator, partial curve, poor fit]",–
COc1ccc2[nH]cc(CCN=C3SCC(=O)N3C)c2c1,"inconclusive: 16.4 µM [activator, partial curve]",–
Oc1ccc(/C=N/Nc2ncc(Br)cn2)c(O)c1,"inconclusive: 5.8 µM [activator, partial curve]",–
CCc1ccc2[nH]cc(C(=O)OCCOC)c(=O)c2c1,–,inactive: 4.54%
c1ccc(Nc2cccc(Nc3ccccc3)n2)cc1,"inconclusive: 23.1 µM [activator, partial curve]",–
O=C(O)CCCCCNC(=O)OCC1c2ccccc2-c2ccccc21,–,inactive: -20.8%
O=C(NNC(=O)c1ccccc1C(=O)O)c1ccc(-c2ccccc2)cc1,–,inconclusive: 44.7% [activator]
O=C(Nc1cccc(S(=O)(=O)Nc2ccc(Cl)cc2)c1)c1ccc2c(c1)OCCO2,"inconclusive: 1.64 µM [inhibitor, partial curve, poor fit]",–
CCCCN(CC)Cc1ccc(CNC(=O)Nc2ccc(OCC)cc2)o1,–,inactive: 8.83%
CC(C)(C)OC(=O)N1CCC(NC(=O)c2nc[nH]c2C(=O)NC2CCN(C(=O)OC(C)(C)C)CC2)CC1,"inconclusive: 23.1 µM [inhibitor, single point]",–
CCn1nc(C)c(CNC(=O)Nc2ccc3c(c2)OCO3)c1C,"inconclusive: 20.6 µM [activator, partial curve]",–
